# From the supplement of paper PMC9454738
# ± gives the standard deviation of the averaged measurements. This is one part of the list. Repeats in this data set agree poorly, so a single value says little.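 Test systems: triple-negative MDA-MB-231 breast cancer cells and their brain-metastatic MDA-MB-231BRM derivative, each stably carrying empty vector, full-length GLI1 or truncated tGLI1. Viability after 48 h was read by CellTiter-Blue and expressed against 1% DMSO vehicle. A compound was tGLI1-selective if it lowered viability 20% more in tGLI1 cells than in vector and GLI1 cells.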
# Legend:
# Assay in all cases: cell viability relative to vehicle (DMSO) control (fraction); higher = more viable cells (less growth inhibition)
# Settings in all cases: treatment time 48 h
# MDA-MB-231 GLI1 = test system: MDA-MB-231 GLI1
# MDA-MB-231 Vector = test system: MDA-MB-231 Vector
# MDA-MB-231 tGLI1 = test system: MDA-MB-231 tGLI1
# MDA-MB-231BRM GLI1 = test system: MDA-MB-231BRM GLI1
# MDA-MB-231BRM Vector = test system: MDA-MB-231BRM Vector
# MDA-MB-231BRM tGLI1 = test system: MDA-MB-231BRM tGLI1
SMILES,cell viability (MDA-MB-231 GLI1; 0.05 µM),cell viability (MDA-MB-231 GLI1; 0.5 µM),cell viability (MDA-MB-231 GLI1; 5 µM),cell viability (MDA-MB-231 Vector; 0.05 µM),cell viability (MDA-MB-231 Vector; 0.5 µM),cell viability (MDA-MB-231 Vector; 5 µM),cell viability (MDA-MB-231 tGLI1; 0.05 µM),cell viability (MDA-MB-231 tGLI1; 0.5 µM),cell viability (MDA-MB-231 tGLI1; 5 µM),cell viability (MDA-MB-231BRM GLI1; 0.05 µM),cell viability (MDA-MB-231BRM GLI1; 0.5 µM),cell viability (MDA-MB-231BRM GLI1; 5 µM),cell viability (MDA-MB-231BRM Vector; 0.05 µM),cell viability (MDA-MB-231BRM Vector; 0.5 µM),cell viability (MDA-MB-231BRM Vector; 5 µM),cell viability (MDA-MB-231BRM tGLI1; 0.05 µM),cell viability (MDA-MB-231BRM tGLI1; 0.5 µM),cell viability (MDA-MB-231BRM tGLI1; 5 µM)
C=CC(=O)N1CCC[C@@H](n2nc(-c3ccc(Oc4ccccc4)cc3)c3c(N)ncnc32)C1,1.3,1.34,0.795,1.22,1.29,1.31,1.55,1.08,0.896,0.986,0.963,0.812,1.05,1.1,0.81,1.07,1.06,0.758
COc1ccc(F)c(F)c1C(=O)c1cnc(NC2CCN(S(C)(=O)=O)CC2)nc1N,1.04,0.568,0.136,1.05,0.755,0.276,1.23,0.761,0.185,0.993,1.07,1.02,1.05,1.05,0.953,1.08,1.02,0.931
CCn1c2ccccc2c2cc(Nc3ccnc(NCCCN4CCOCC4)n3)ccc21,1.16,1.48,-0.06,1.2,1.55,-0.0567,1.43,1.4,0.0951,0.943,0.915,0.779,1.11,0.945,0.806,0.949,0.925,0.769
O=C(/C=C/c1ccc2ccccc2n1)c1ccncc1,1.46,1.5,-0.0565,1.49,1.31,0.0391,1.26,1.36,-0.0327,1.12,0.996,0.806,1.22,1.12,0.866,0.968,1.01,0.809
"CN1CCN(c2ccc3nc(-c4c(N)c5c(F)cccc5[nH]c4=O)[nH]c3c2)CC1 [Dovitinib (TKI-258, CHIR-258)]",1.41,1.79,0.502,1.58,1.3,0.434,1.06,1.51,0.426,0.86,0.828,0.582,0.874,0.779,0.661,0.916,0.882,0.501
CC(C)N(CCC(=O)c1ccc2ccccc2c1)Cc1ccccc1,2.49,3.17,1.81,1.37,1.29,1.03,1.42,1.55,1.1,0.905,0.805,0.813,0.924,0.832,0.92,1.14,1.06,1.12
Cc1ccc(-n2nc(C(C)(C)C)cc2NC(=O)Nc2ccc(OCCN3CCOCC3)c3ccccc23)cc1 [BIRB 796 (Doramapimod)],1.34,1.35,1.55,1.89,1.28,1.16,1.19,1.31,1.4,1.1,1.12,0.874,1.21,0.999,0.926,0.598,1.09,0.89
Cc1ccc(NC(=O)c2ccc(CN3CCN(C)CC3)cc2)cc1Nc1nc(-c2cccnc2)cs1 [Masitinib (AB1010)],1.16 ± 0.027,1.32 ± 0.29,1.19 ± 0.05,1.05 ± 0.3,1.15 ± 0.024,1.01 ± 0.21,1.13 ± 0.029,1.22 ± 0.15,0.997 ± 0.22,0.973 ± 0.041,0.879 ± 0.064,0.799 ± 0.076,0.967 ± 0.047,0.902 ± 0.07,0.821 ± 0.028,0.965 ± 0.12,0.947 ± 0.042,0.837 ± 0.024
COc1cc2c(Oc3ccc4[nH]c(C)cc4c3F)ncnc2cc1OCCCN1CCCC1 [Cediranib (AZD2171)],1.04,1.41,0.155,0.876,0.863,0.225,0.77,1.09,0.465,0.943,0.919,0.886,0.854,0.878,0.816,0.978,0.877,0.794
Nc1nc(Nc2ccc(S(N)(=O)=O)cc2)nn1C(=O)c1c(F)cccc1F,1.23,1.11,0.141,1.82,1.04,0.17,1.06,0.395,0.136,1.16,1.17,0.95,1,1.17,0.563,1.11,0.634,0.484

# Quoted from the listing:
# cell viability (MDA-MB-231 GLI1; 0.5 µM), CC(C)N(CCC(=O)c1ccc2ccccc2c1)Cc1ccccc1 reads 3.17
# cell viability (MDA-MB-231BRM GLI1; 0.05 µM), O=C(/C=C/c1ccc2ccccc2n1)c1ccncc1 reads 1.12
